Data source: PubChem BioAssay AID1159578 (Peter MacCallum Cancer Centre, 2015)
Shown is one part, drawn at random, of about 18,000 reagents tested. About 1,030 of all reagents (5.7%) count as active. 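Inactive calls also include pools with fewer than 3300 nuclei, whose migration was not assessed.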 Raw values are not corrected between plates. Further read-outs or replicates are left out here.

Aim: 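siRNA pools altering how lymphatic endothelial cells close a scratch wound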 (primary screen)
System: human lymphatic endothelial cells
Reagent: siRNA pool against human genes, 40 nM
Timing: 48 h after transfection
Detection: 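High-content imaging of dye-stained cells in a scratch assay measures filled wound area and nuclei per well; duplicate means given as ratio to mock and robust z-score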
Scale: migration robust z-score: higher = faster migration into the scratch; nuclei per well: higher = more cells in the well
Call rule: 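Pools averaging fewer than 3300 nuclei are never called; remaining pools count as changed when migration robust z lies outside -2 to 2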
Meaning of the calls: active = migration changed; inactive = no migration change, or too few cells

Gene	migration robust z-score	migration class with cell-count check	nuclei per well, duplicate mean	activity call
IL12B	-0.46	migration z between -2 and 2; enough cells	7101	inactive
PHF19	0.68	migration z between -2 and 2; enough cells	5534	inactive
SGCD	-1.32	migration z between -2 and 2; enough cells	6136	inactive
TREML2	0.68	migration z between -2 and 2; enough cells	5917	inactive
MAP6D1	0.32	migration z between -2 and 2; enough cells	5521	inactive
IRAK4	0.28	migration z between -2 and 2; enough cells	5406	inactive
BOLA2	-0.54	migration z between -2 and 2; enough cells	4086	inactive
RNFT1	0.34	migration z between -2 and 2; enough cells	6426	inactive
ZNF423	-0.29	migration z between -2 and 2; enough cells	5344	inactive
ZMYND10	-0.1	migration z between -2 and 2; enough cells	7806	inactive
IL15RA	-0.64	migration z between -2 and 2; enough cells	4248	inactive
FAM229B	-0.29	migration z between -2 and 2; enough cells	4255	inactive
NKAPL	-1.12	migration z between -2 and 2; enough cells	5528	inactive
OR10Q1	0.84	migration z between -2 and 2; enough cells	5855	inactive
CGAS	0.27	migration z between -2 and 2; enough cells	4536	inactive
ADAM2	-0.02	migration z between -2 and 2; enough cells	5412	inactive
GPRC6A	-1.02	migration z between -2 and 2; enough cells	4554	inactive
PPAN	0.55	migration z between -2 and 2; enough cells	6288	inactive
CCDC62	0.38	migration z between -2 and 2; enough cells	6229	inactive
PIWIL4	1.03	migration z between -2 and 2; enough cells	5722	inactive
AHCTF1	-0.21	migration z between -2 and 2; enough cells	6408	inactive
IER5L	0.54	migration z between -2 and 2; enough cells	5706	inactive
LYPD6	-1.15	migration z between -2 and 2; enough cells	6467	inactive

A run of entries from the list above, as a working copy:
Gene	migration robust z-score	migration class with cell-count check	nuclei per well, duplicate mean	activity call
IL15RA	-0.64	migration z between -2 and 2; enough cells	4248	inactive
FAM229B	-0.29	migration z between -2 and 2; enough cells	4255	inactive
